Some results were stated once for a whole list of compounds, not compound by compound.
These sequences were tested on 2C T cells (assay: Cell-bead complex formation, flow cytofluorometry, green versus red fluorescence dot plots). Conditions: L^d-coated beads, 20 μM peptide.
Format: cell-based, mouse

| Sequence | percentage of cells complexed to beads (RG/G+RG) |
| --- | --- |
| QLSPFPFDL [QL9] | over 85% |
| SPFPFDLLL [SL9, ID; NO.: 3] | over 85% |
| LSPFPFDL [p2Ca] | over 85% |
